Screen size: about 360,000 compounds; about 290 (0.081%) were called active. Inconclusive means that the source gave no clear call. Such entries were picked first, then a sample of the others. Calls come from the whole dose curve; as a rule, active = well fitted activation curve with a large enough effect; inconclusive = small, poorly fitted or top-dose-only effect; inactive = no such curve, though single readings can be large or run the other way. Potencies beside an inconclusive call are fits to weak or partial responses and may not hold up.
Target: Rap guanine nucleotide exchange factor 4 (Homo sapiens) (UniProt Q8WZA2)
Test: qHTS for Agonist of cAMP-regulated guanine nucleotide exchange factor 4 (EPAC2): primary screen; note: nearly all actives have a fitted effect of over 50% in size
Details: biochemical qHTS; Potency: EPAC2 activation unless noted; activation: at 154 µM (top of the series), 100% = 6.5 mM cAMP response unless noted
Excerpt: In multi-cellular eukaryotic organisms, the effects of cAMP are transduced by two ubiquitously-expressed intracellular cAMP receptors, the classic protein kinase A/cAMP-dependent protein kinase (PKA/cAPK) and the more recently discovered exchange protein directly activated by cAMP/cAMP-regulated guanine nucleotide exchange factor (EPAC/cAMP-GEF). Both PKA and EPAC are ubiquitously expressed in all tissues, and an increase in intracellular cAMP levels will lead to the activation of both PKA and EPAC. Therefore, careful dissections of the individual role and relative contribution of EPAC and PKA within the overall cAMP signaling in various model systems are critical for further elucidating the mechanism of cAMP signaling. To date no EPAC-specific antagonists and agonist, as well as isoform-specific agonists have been reported, and developing EPAC-specific pharmacological probes to determine the physiological functions that EPAC play in the overall cAMP-mediated signaling remains a major challenge within the research field. Furthermore, identified regulators of EPAC may lead to new mechanism-based therapeutic strategies specifically targeting the EPAC / cAMP-signaling components as EPAC has been implicated to play important roles in major human pathological conditions such as diabetes, heart disease, and cancer.
This qHTS will be used to screen the Molecular Libraries Small Molecule Repository (MLSMR) as a concentration-titration series using the NCGC unique quantitative screening (qHTS) platform to find activators for EPAC2. In addition, this assay will also be used as a counterscreen for the EPAC1 qHTS. This fluorescent based assay is developed and validated for EPAC2 that measures exchange using EPAC effector Rap1 complex with BODIPY-GDP, a GDP analog with a tethered fluorophores. Activators are identified by monitoring the change in fluorescence signal as the exchanged free BODIPY-GDP has a reduced fluorescence compared to Rap1-bound BODIPY-GDP. […] in signal (activation) is the desired outcome for the EPAC2 agonist while no activity in this assay is desired for the EPAC1 agonist counterscreen.
[1] de Rooij, J., Zwartkruis, F. J., Verheijen, M. H., Cool, R. H., Nijman, S. M., Wittinghofer, A., and Bos, J.L. (1998) Nature 396, 474-477
[2] Kawasaki, H., Springett, G. M., Mochizuki, N., Toki, S., Nakaya, M., Matsuda, M., Housman, D. E., and Graybiel, A. M. (1998) Science 282, 2275-2279
NIH Chemical Genomics Center [NCGC]
NIH Molecular Libraries Probe Centers Network [MLPCN]
Assay Submitter (PI): Xiaodong Cheng, The University of Texas, Medical Branch
Briefly, three uL of reagents (100 nM EPAC2, 250 nM RAP1B-BODIPY-GDP, 50 uM GDP) were dispensed into a 1536-well Greiner black solid-bottom medium binding assay plate. Controls and test compounds (23 nL) were transferred to the plate via a Kalypsys pin tool equipped with a 1536-pin array. The plates were centrifuged at 1,000 rpm for 15 seconds followed by 5 minute incubation at room temperature. The assay plates were read at 5 minute intervals for 30 minutes in the ViewLux plate reader using 480nm excitation and 540nm emission filters. The results were normalized to the agonist positive control of 6.5 mM cAMP.
Potency is the fitted concentration of half-maximal effect.

The chains behind the UniProt entries cited, without tags or fusion partners. Where a name states a change or a piece, a line headed by the entry shows the natural chain unless it says otherwise.
UniProt Q8WZA2: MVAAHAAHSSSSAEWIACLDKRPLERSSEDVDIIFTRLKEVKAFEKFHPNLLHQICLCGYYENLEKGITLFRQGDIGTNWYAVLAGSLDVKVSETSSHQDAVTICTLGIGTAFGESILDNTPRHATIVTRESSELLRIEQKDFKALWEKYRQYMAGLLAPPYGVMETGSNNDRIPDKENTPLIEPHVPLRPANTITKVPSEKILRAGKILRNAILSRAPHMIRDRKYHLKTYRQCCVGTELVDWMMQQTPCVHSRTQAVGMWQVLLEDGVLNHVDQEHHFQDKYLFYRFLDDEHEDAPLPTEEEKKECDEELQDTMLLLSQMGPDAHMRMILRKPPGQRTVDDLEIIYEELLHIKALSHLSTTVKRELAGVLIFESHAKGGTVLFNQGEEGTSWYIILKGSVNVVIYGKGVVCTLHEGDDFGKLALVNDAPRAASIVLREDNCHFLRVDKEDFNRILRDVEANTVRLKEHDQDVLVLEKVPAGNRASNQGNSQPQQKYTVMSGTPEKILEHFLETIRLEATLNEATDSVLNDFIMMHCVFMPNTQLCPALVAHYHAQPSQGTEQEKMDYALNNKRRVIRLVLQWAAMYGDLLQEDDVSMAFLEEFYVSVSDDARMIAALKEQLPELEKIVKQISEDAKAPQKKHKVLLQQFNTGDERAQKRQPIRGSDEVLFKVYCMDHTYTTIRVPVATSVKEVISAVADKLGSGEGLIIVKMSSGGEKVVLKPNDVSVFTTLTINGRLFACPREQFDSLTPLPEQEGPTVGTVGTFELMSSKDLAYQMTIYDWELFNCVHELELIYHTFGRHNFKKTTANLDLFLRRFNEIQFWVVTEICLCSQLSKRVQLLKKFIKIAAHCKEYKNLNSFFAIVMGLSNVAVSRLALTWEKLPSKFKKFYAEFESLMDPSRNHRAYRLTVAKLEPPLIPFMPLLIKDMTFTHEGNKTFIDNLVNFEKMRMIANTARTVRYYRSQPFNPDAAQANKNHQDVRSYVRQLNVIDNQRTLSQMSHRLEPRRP

SMILES | activation | Potency
COc1ccc(N2C(=O)NC(=O)/C(=C\c3ccc([N+](=O)[O-])s3)C2=O)cc1 | inactive: -17.8% | 
CCN(CC)c1ccc(N=Cc2c(O)n(CCC3=CCCCC3)c(=O)[nH]c2=O)cc1 |  | inconclusive: 100 µM [activator, partial curve]
C[N+]1(C)C2CCC1CC(OC(=O)c1c[nH]c3ccccc13)C2 (configuration not stated) | inactive: -4.74% | 
Cn1cc(C=C2C(=O)NC(=O)NC2=O)c2ccccc21 |  | inconclusive: 89.1 µM [activator, partial curve]
CC1=C2C(=O)C3C(CC=C4CC(OC5OC(O)C(O)C(O)C5CO)CCC43C)C2CCC12OC1CC(C)CNC1C2C (configuration not stated) |  | inconclusive: 25.1 µM [activator, partial curve]
O=[N+]([O-])c1ccc(N2CCCCCC2)c2nonc12 |  | active: 100 µM
CCOC(=O)c1c(C)n(Cc2ccccc2)c2ccc(OCC(O)Cn3nc(C)nc3C)cc12 (configuration not stated) |  | inconclusive: 50.1 µM [activator, single point]
Cc1cc2c(C(F)(F)F)cc(=O)oc2c2c1NCCC2 |  | inconclusive: 100 µM [activator, partial curve]
COc1ccc2c(c1)NP(=S)(Oc1ccccc1)N2 (configuration not stated) |  | inconclusive: 112 µM [activator, single point]
O=c1[nH]c2ccccc2n1C1CCN(C(c2cc3ccccc3o2)c2nnnn2-c2ccc3c(c2)OCCO3)CC1 (configuration not stated) | inactive: 8.3% | 
O=C(OC1CCN(CCCl)CC1)C(c1ccccc1)c1ccccc1 | inactive: 9.73% | 
COc1ccc(N2C(=O)/C(=C/c3ccc(N(C)C)o3)C(=O)NC2=S)cc1 |  | inconclusive: 112 µM [activator, single point]
COCOC1CCC2C3CCC4=CC(=O)CCC4=C3C=CC12C (configuration not stated) | inactive: -5.42% | 
COc1ccc(CCn2c(O)c(C=Nc3ccc(F)cc3)c(=O)[nH]c2=O)cc1OC | inactive: -0.0773% | 
O=c1cc(C(F)(F)F)c2cc3c4c(c2o1)CCCN4CCC3 |  | active: 44.7 µM
COc1ccccc1C1CC2CCC(C1OC(C)=O)N2Cc1ccccc1 (configuration not stated) |  | inconclusive: 89.1 µM [activator, partial curve]
COc1cc(/C=C2\C(=O)NC(=O)N(CCc3ccc(F)cc3)C2=O)ccc1O | inactive: 2.32% | 
O=c1[nH]c(=S)n(-c2ccc(Cl)cc2)c(O)c1C=Nc1ccc(N2CCOCC2)cc1 |  | inconclusive: 112 µM [activator, partial curve]
O=C(/C=C/c1ccc2c(c1)OCO2)c1c(O)n(CCc2ccccc2)c(=O)[nH]c1=O |  | inconclusive: 28.2 µM [activator, partial curve]
COC(=O)c1cccc(NC(=O)c2ccc(S(=O)(=O)N(C)c3ccccc3OC)cc2)c1 |  | inconclusive: 20 µM [activator, partial curve]
COc1cccc(N2C(=O)NC(=O)/C(=C\c3cn(C)c4ccccc34)C2=O)c1 |  | active: 100 µM
CC(C)(C)NC(=S)N1Cc2ccccc2-n2nncc2C1 |  | inconclusive: 4.47 µM [activator, full curve, poor fit]
O=C(c1ccc(Cl)cc1)C1CCCN(Cc2cccn2-c2cccnc2)C1 (configuration not stated) |  | inconclusive: 63.1 µM [activator, full curve, poor fit]
Cc1cccc(NC(=O)C2CCCN(S(=O)(=O)c3ccc4c(c3)oc(=O)n4C)C2)c1 (configuration not stated) |  | inconclusive: 100 µM [activator, partial curve]

SMILES | activation | Potency
Cc1nc2c(=O)n(C)c(=O)nc-2n(C)n1 |  | inconclusive: 31.6 µM [activator, full curve, poor fit]
CC(=O)OC1CC(OC2C(O)CC(OC3C(O)CC(OC4CCC5(C)C(CCC6C5CC(O)C5(C)C(C7=CC(=O)OC7)CCC65O)C4)OC3C)OC2C)OC(C)C1OC1OC(CO)C(O)C(O)C1O (configuration not stated) |  | active: 112 µM
CN(C)C(=S)SSC(=S)N(C)C | inactive: 0.0561% | 
Cc1c2cnn(CC(=O)N3CCC4(CC3)OCCO4)c(=O)c2c(C)n1Cc1ccc(F)cc1 |  | inconclusive: 50.1 µM [activator, single point]
Cc1cccc(-n2c(/C=C/c3ccc([N+](=O)[O-])o3)nc3ccccc3c2=O)c1 |  | inconclusive: 100 µM [activator, single point]
CCC(=NCCCO)c1c(O)n(-c2ccc(OC)cc2)c(=O)[nH]c1=O |  | inconclusive: 100 µM [activator, single point]
CN1Cc2c(c(C#N)c(N)n(C)c2=S)CC1(C)C |  | inconclusive: 100 µM [activator, partial curve]
C=CCC1(CCCCC)C(=O)NC(=S)NC1=O | inactive: 0.148% | 
CCN1/C(=C\C=C\C2=[N+](CC)c3ccccc3C2(C)C)C(C)(C)c2ccccc21 |  | active: 50.1 µM
CN1/C(=C\C=C2C(=O)NC(=S)NC2=O)C(C)(C)c2ccccc21 |  | active: 50.1 µM
CCn1c(O)c(C=Nc2ccc(N3CCOCC3)cc2)c(=O)n(CC)c1=S |  | active: 100 µM
COC(=O)C1=C(c2ccc3ccccc3c2)C[C@@H]2CC[C@H]1N2C(=O)N1CCCCC1 | inconclusive: 20.4% [activator] | 
O=C1NC(=O)C(=Cc2cn(CCOc3ccc4c(c3)OCO4)c3ccccc23)C(=O)N1 |  | active: 100 µM
O=C(O)CC1OCC=C2CN3CCC45C6=CC(=O)C(=O)C([N+](=O)[O-])=C6NC4C1C2CC35 (configuration not stated) |  | inconclusive: 11.2 µM [activator, full curve]
Cn1ncnc2c(=O)n(C)c(=O)nc1-2 |  | inconclusive: 63.1 µM [activator, partial curve, poor fit]
C=C1N2CCC(CC2)C1(O)c1ccc(C)cc1 (configuration not stated) | inactive: -0.151% | 
Nc1ccc2c3c(cccc13)-c1ccccc1-2 |  | inconclusive: 126 µM [activator, single point]
CCN(CC)c1ccc(/C=C2\C(=O)NC(=S)N(c3ccc(OC)cc3OC)C2=O)o1 |  | inconclusive: 100 µM [activator, partial curve]
COc1cccc(CN2CCN(C(=O)COc3ccc4ccccc4c3)CC2)c1 |  | inconclusive: 112 µM [activator, single point]
COc1ccc(OC(=O)N(C)C[C@@H]2OCc3ccccc3-c3c(n(C)c4ccccc34)C(=O)N([C@H](C)CO)C[C@@H]2C)cc1 |  | inconclusive: 50.1 µM [activator, single point]
Cc1cc(C)c(Cn2c(C(=O)O)c(C=O)c3ccccc32)c(C)c1 |  | inconclusive: 100 µM [activator, partial curve]
O=c1[nH]c(=S)n(-c2ccccc2F)c(O)c1C=Nc1ccc(N2CCOCC2)cc1 |  | inconclusive: 56.2 µM [activator, full curve]
COC(=O)[C@@]1(C#N)[C@@H]2C=CC(C(C)=O)=CN2[C@@H](C(N)=O)[C@@H]1c1ccc(F)cc1 |  | inconclusive: 126 µM [activator, single point]
CCN1/C(=C/C=C/C2=[N+](CC)c3ccccc3C2(C)C)C(C)(C)c2ccccc21 |  | active: 17.8 µM

Some of the entries so far, field by field.
Cc1c2cnn(CC(=O)N3CCC4(CC3)OCCO4)c(=O)c2c(C)n1Cc1ccc(F)cc1
  Potency: inconclusive: 50.1 µM [activator, single point]
Cc1cccc(-n2c(/C=C/c3ccc([N+](=O)[O-])o3)nc3ccccc3c2=O)c1
  Potency: inconclusive: 100 µM [activator, single point]

(cont.)

SMILES | activation | Potency
C[n+]1c2cc(N)ccc2cc2ccc(N)cc21 |  | active: 100 µM
CCOc1ccc(N2C(=O)/C(=C/c3ccco3)C(=O)NC2=S)cc1 | inactive: 2.55% | 
COc1ccc(NC(=O)CN(C)C(=O)CSC(c2ccccc2)c2ccccc2)cc1 | inactive: 9.32% | 
Cc1ccc(OCC(=O)N/N=C\c2ccc(O)c([N+](=O)[O-])c2)c([N+](=O)[O-])c1 |  | inconclusive: 126 µM [activator, single point]
C[N+]1(C)[C@@H]2CC[C@H]1CC(OC(=O)C(c1ccccc1)c1ccccc1)C2 (some centres not stated) | inactive: -4.02% | 
Cc1cc(C=C(C#N)C#N)ccc1N1CCCC1 |  | active: 100 µM
CCOC(=O)c1cccc(NC2c3ccccc3C(=O)N2Cc2ccco2)c1 (configuration not stated) |  | inconclusive: 70.8 µM [activator, partial curve]
O=c1[nH]c(=S)n(Cc2ccc(F)cc2)c(O)c1/C=N/N1CCCCCC1 |  | inconclusive: 112 µM [activator, partial curve]
COC(=O)C1=C(c2cc3ccccc3s2)C[C@@H]2CC[C@H]1N2C(=O)N1CCCCC1 |  | inconclusive: 35.5 µM [activator, partial curve]
CC(=O)[C@H]1CC[C@H]2[C@@H]3CCC4=CC(=O)CC[C@]4(C)[C@H]3CC[C@]12C |  | inconclusive: 28.2 µM [activator, single point]
CN1CCN(c2ccc(/C=C3\C(=O)NC(=S)N(c4cccc(Br)c4)C3=O)o2)CC1 | inactive: 15% | 
O=C(C1CCC(=O)N1Cc1ccc(F)cc1)N1CCC2(CC1)OCCO2 (configuration not stated) | inconclusive: 60.2% [activator] [at 15.6 µM, 100% = 6.5 mM cAMP response] | 
C/C(CC(=O)N1CCN(C=O)CC1)=N\NC(=O)c1cccc([N+](=O)[O-])c1 |  | inconclusive: 50.1 µM [activator, single point]
COc1ccc(CN2C(=O)CC(=O)NC2=S)cc1 | inactive: 4.51% | 
CC[C@@]1(C(=O)OC)N[C@H](CN(C)C(=O)Nc2ccc(OC)cc2)[C@@H]2C(=O)N(Cc3ccccc3)C(=O)[C@@H]21 |  | inconclusive: 50.1 µM [activator, single point]
Nc1ccc2nonc2c1[N+](=O)[O-] |  | inconclusive: 89.1 µM [activator, partial curve]
Cc1ccccc1-n1c(O)c(/C=C/C=Nc2ccccc2)c(=O)[nH]c1=O |  | inconclusive: 39.8 µM [activator, partial curve]
COc1cccc(C2CC3C(=O)C=CC2N3Cc2ccccc2)c1 (configuration not stated) |  | inconclusive: 112 µM [activator, partial curve]
CC(C)CNC(=O)c1c(N)n(Cc2ccc3c(c2)OCO3)c2nc3ccccc3nc12 | inactive: -13.1% | 
Nc1ccc2ccc3cccc[n+]3c2c1 |  | active: 112 µM
CC1=NCCc2c1[nH]c1cc(O)ccc21 |  | active: 100 µM
O=C(Cn1ncc2c3ccccc3n(Cc3cccc(Cl)c3)c2c1=O)N1CCC2(CC1)OCCO2 |  | inconclusive: 112 µM [activator, single point]
CN1C(=O)C(=Cc2ccc(N3CCCCCC3)o2)C(=O)N(C)C1=S |  | inconclusive: 112 µM [activator, partial curve]
COc1ccc(N2C(=O)NC(=O)/C(=C\c3cn(C)c4ccccc34)C2=O)cc1 |  | inconclusive: 22.4 µM [activator, partial curve]

Single records (already shown).
COc1cc(/C=C2\C(=O)NC(=O)N(CCc3ccc(F)cc3)C2=O)ccc1O as listed: activation: inactive: 2.32%
COc1cccc(C2CC3C(=O)C=CC2N3Cc2ccccc2)c1 (configuration not stated) as listed: Potency: inconclusive: 112 µM [activator, partial curve]

— PubChem BioAssay AID720711 (National Center for Advancing Translational Sciences (NCATS), 2013)
